In publication doi:10.1101/2023.06.27.546651:
These are yes or no findings as the source states them, for the method shown. Some results given as binding are weak or reduced against the parent protein; the word gives no strength. Sequences can lack the tags named with a protein.

Protein sequences, listed by entry. Tags and fused reporters are not part of them.
UniProt Q01094: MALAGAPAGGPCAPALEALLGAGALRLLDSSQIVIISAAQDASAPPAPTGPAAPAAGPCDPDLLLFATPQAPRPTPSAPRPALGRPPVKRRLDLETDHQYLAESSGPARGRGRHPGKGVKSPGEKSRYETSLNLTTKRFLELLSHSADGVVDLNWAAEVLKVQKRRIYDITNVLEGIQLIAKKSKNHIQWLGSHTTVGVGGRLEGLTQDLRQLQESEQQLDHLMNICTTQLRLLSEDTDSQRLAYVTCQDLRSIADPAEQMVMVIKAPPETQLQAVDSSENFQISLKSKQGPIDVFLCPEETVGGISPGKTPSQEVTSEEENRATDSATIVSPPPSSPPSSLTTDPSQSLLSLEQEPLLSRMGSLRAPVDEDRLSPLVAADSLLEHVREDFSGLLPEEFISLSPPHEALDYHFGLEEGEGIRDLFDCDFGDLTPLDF

Molecular target: recombinant His-SUMO-E2F1 (UniProt Q01094)
Assay: ELISA

B1: recombinant glutathione S-transferase (GST) tagged SETD6 (enzyme, UniProt Q8TBK2 1-473)
chain: MATQAKRPRVAGPVDGGDLDPVACFLSWCRRVGLELSPKVSERAGGRRTRGGARAALTSPPAQVAVSRQGTVAGYGMVARESVQAGELLFVVPRAALLSQHTCSIGGLLERERVALQSQSGWVPLLLALLHELQAPASRWRPYFALWPELGRLEHPMFWPEEERRCLLQGTGVPEAVEKDLANIRSEYQSIVLPFMEAHPDLFSLRVRSLELYHQLVALVMAYSFQEPLEEEEDEKEPNSPVMVPAADILNHLANHNANLEYSANCLRMVATQPIPKGHEIFNTYGQMANWQLIHMYGFVEPYPDNTDDTADIQMVTVREAALQGTKTEAERHLVYERWDFLCKLEMVGEEGAFVIGREEVLTEEELTTTLKVLCMPAEEFRELKDQDGGGDDKREEGSLTITNIPKLKASWRQLLQNSVLLTLQTYATDLKTDQGLLSNKEVYAKLSWREQQALQVRYGQKMILHQLLELTS
Q: Which binding does the source give for B1 here?
A: Its binding is “binds”.
